The record followed here is US8420051B2, “Muteins of hNGAL and related proteins with affinity for a given target” (Technische Universitaet Meunchen, priority 2008, dated 2013).

The test system of this series is hNGAL mutein L1, SEQ ID NO: 28 (C26 + R43P/E44V/K46P/D47E/K50L/M51L). The series is described as follows: SPR (Biacore), immobilized Y-DTPA-RNaseA. Type of series: binding, human. As for the experimental part: Real time analysis of hNGAL variants was performed on a BIAcore X system (BIAcore, Uppsala, Sweden) using PBS/t (PBS containing 0.005% (v/v) Tween 20) as running buffer. 5 to 27 μg/ml solutions of the Me•DTPA-RNase conjugate in 10 mM Na-acetate, pH 5.0 were immobilized on a CM5 chip using standard amine coupling chemistry, resulting in a ligand density of 240 to 1800 resonance units (RU). The purified hNGAL variant was applied at a flow rate of 5 or 25 μl/min at concentrations of 0.5 up to 500 nM. The sensorgrams were corrected by subtraction of the corresponding signals measured for the control channel, which had been activated and blocked with ethanolamine. Kinetic data evaluation was performed by global fitting with BIAevaluation software V 3.0 (Karlsson et al. (1991) J. Immunol. Methods 145, 229-240). Alternatively, the plateau values at the end of the association phase (after 200 s) were plotted against the applied protein concentration and fitted as in the ELISA (see above) to determine the equilibrium dissociation constants (KO.
The new hNGAL variant L1 was analyzed by SPR as in Example 8 using a Biacore CM-5 chip with the covalently attached Y-DTPA-RNaseA conjugate and applying the purified recombinant protein.
In general terms: SPR reads the build-up and loss of mass on a sensor chip optically.

B1: Y^3+•DTPA-RNase: p-SCN-Bn-CHX-A″-DTPA covalently coupled to bovine ribonuclease A (about 1:1), charged with Y^3+; ligand is the chelate group (conjugate, UniProt P61823 27-150, looked up)
Ribonuclease pancreatic: KETAAAKFERQHMDSSTSAASSSNYCNQMMKSRNLTKDRCKPVNTFVHESLADVQAVCSQKNVACKNGQTNCYQSYSTMSITDCRETGSSKYPNCAYKTTQANKHIIVACEGNPYVPVHFDASV
modifications: CHX-A''-DTPA chelate with Y3+
notes: p-SCN-Bn-CHX-A″-DTPA covalently coupled to bovine ribonuclease A (about 1:1), charged with Y^3+; ligand is the chelate group
Consider B1, for which the “improvement of dissociation rate constant compared with C26” value is recorded as 3.4 -fold and the “reduction of association rate constant compared with C26” value is recorded as 10 -fold.
